## Library screen at single concentrations

Amino acid sequences for entries named in this document (tags omitted).
UniProt P9WPC5, whole entry: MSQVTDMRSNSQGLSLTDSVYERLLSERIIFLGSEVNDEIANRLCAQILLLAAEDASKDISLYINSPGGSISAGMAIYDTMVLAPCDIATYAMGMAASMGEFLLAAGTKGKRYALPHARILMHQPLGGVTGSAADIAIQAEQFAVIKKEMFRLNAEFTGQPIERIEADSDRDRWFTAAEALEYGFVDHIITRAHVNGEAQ
UniProt P9WPC3, whole entry partner: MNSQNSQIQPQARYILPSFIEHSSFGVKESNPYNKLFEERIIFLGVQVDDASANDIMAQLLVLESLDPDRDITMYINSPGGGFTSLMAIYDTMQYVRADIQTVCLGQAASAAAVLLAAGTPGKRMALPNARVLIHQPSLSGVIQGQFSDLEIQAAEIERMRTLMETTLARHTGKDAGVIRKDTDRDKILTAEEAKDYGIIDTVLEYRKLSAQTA
UniProt I6X8D2, whole entry: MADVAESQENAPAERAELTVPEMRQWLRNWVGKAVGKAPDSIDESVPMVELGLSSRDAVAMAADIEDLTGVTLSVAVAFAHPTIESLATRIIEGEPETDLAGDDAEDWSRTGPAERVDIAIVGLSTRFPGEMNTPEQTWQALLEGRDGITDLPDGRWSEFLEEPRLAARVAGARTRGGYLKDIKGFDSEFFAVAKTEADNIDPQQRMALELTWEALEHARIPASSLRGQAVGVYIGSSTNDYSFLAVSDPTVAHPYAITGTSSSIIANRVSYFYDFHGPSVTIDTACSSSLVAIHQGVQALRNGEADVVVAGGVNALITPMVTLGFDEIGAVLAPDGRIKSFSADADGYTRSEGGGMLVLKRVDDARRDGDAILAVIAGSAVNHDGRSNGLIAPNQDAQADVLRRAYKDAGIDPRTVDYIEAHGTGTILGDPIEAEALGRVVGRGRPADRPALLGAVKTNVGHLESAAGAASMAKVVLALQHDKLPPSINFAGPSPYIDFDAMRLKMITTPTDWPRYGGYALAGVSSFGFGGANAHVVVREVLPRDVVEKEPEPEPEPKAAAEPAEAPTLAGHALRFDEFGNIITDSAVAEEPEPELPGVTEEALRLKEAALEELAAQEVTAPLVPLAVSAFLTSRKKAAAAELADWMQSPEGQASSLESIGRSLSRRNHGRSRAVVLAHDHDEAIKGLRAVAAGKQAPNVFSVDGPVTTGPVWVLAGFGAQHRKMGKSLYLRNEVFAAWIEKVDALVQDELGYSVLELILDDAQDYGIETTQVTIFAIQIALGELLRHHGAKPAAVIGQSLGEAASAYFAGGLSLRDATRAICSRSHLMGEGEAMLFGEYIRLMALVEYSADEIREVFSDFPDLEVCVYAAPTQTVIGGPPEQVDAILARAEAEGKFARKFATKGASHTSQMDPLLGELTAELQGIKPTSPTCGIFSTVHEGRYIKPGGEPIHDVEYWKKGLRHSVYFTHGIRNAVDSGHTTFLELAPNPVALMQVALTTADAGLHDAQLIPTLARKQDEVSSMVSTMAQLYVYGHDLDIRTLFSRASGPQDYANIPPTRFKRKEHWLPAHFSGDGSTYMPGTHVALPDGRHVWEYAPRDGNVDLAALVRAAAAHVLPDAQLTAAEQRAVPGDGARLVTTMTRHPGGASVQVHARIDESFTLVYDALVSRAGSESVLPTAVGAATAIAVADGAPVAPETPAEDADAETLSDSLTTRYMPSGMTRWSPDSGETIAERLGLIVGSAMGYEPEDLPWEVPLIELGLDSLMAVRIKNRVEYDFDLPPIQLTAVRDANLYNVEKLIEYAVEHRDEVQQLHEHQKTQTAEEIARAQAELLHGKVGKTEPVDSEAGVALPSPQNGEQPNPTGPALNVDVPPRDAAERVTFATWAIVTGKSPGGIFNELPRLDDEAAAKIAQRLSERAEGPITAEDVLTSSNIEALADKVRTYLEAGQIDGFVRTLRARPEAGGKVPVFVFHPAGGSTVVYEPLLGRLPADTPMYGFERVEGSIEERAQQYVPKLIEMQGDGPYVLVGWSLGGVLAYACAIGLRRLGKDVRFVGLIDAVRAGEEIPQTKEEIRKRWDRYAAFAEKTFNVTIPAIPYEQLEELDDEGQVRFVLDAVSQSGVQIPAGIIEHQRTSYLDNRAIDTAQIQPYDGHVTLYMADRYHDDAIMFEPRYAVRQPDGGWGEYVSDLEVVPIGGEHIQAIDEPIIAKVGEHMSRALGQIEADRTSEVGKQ

ClpP1P2: 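ClpP1P2, Mycobacterium tuberculosis (UniProt P9WPC5 and UniProt P9WPC3). Protease assay of ClpP1P2, read by the AMC dye that it sets free. Tested at 50 µM. Higher reads as stronger inhibition, judged from the few compounds that gave an IC50. Most other retested compounds had strongly negative values. Of about 69,000 compounds tested this way, about 10 (0.015%) reached 50% or more in at least one test.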
Pks13 thioesterase: 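Enzyme assay of the thioesterase domain of polyketide synthase 13; the read-out is not stated. Target: Polyketide synthase Pks13, Mycobacterium tuberculosis (UniProt I6X8D2). Concentration: 30 µM. Higher reads as stronger inhibition (inferred from which compounds were picked for retests). Of about 67,000 compounds tested this way, about 300 (0.46%) reached 50% or more in at least one test.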

Values are the deposited “Percent Effect”, in %. How 0% and 100% were set is not recorded. Most values in the screen are low, and negative values occur. Compounds were drawn at random from those tested, without regard to their results.

CC(C)c1cc(N2CCC(CCC(=O)NC3CC3)CC2)n2nccc2n1 gave ClpP1P2: -6.108%; Pks13 thioesterase: 0.615%. With NS(=O)(=O)c1ccc(CNCC(=O)NCc2ccc(Cl)cc2Cl)cc1 the screen gave ClpP1P2: 1.432%; Pks13 thioesterase: -20.31%. CC/C=C(/C)C(=O)NCCc1csc(N2CCCC2)n1 gave ClpP1P2: -4.681%; Pks13 thioesterase: 5.518%. CCC1CN(CCNS(C)(=O)=O)c2ccccc2O1 (stereo not given) read ClpP1P2: 3.835%; Pks13 thioesterase: 8.189%. O=C(Nc1ccccn1)c1csc(NC2CCCC2)n1 gave ClpP1P2: -0.507%; Pks13 thioesterase: -2.324%.

For CNc1cccc(C2CCCN(C(=O)c3ccncc3)C2)n1 (stereo not given) the result was ClpP1P2: -0.2358%; Pks13 thioesterase: -38.52%. O=C(c1cc(Br)ccc1-n1cnnn1)N1CCCCC1 gave ClpP1P2: -6.35%; Pks13 thioesterase: 0.02714%. For CCC(NC(=O)C(C)C)c1ccccc1C (stereo not given) the result was ClpP1P2: -17.8%; Pks13 thioesterase: 35.42%. For CCC(=O)N1CCCC1(C)c1nc(C)no1 (stereo not given) the result was ClpP1P2: -11.47%; Pks13 thioesterase: 6.143%. With CCc1ncc2c(n1)CN(Cc1cnc(C)cn1)CC2 the screen gave ClpP1P2: -18.3%; Pks13 thioesterase: 7.06%.

Result for O=C1CN(CCCNC(=O)Nc2ccccn2)CCN1 was ClpP1P2: -4.255%; Pks13 thioesterase: -30.3%. Result for O=C(N[C@@H]1CCC[C@@H](N2CCCC2)[C@@H]1O)c1cnn2cccnc12 was ClpP1P2: -3.047%; Pks13 thioesterase: -7.918%. CN(C)C(=O)COCc1nnc2n1CCN(Cc1ccoc1)C2 gave ClpP1P2: -1.444%; Pks13 thioesterase: -7.306%. N[C@@H]1c2ccccc2C2(CCN(c3cc(C(F)(F)F)ccn3)CC2)[C@H]1O gave ClpP1P2: 5.291%; Pks13 thioesterase: 28.05%. Result for NC[C@H]1CC[C@H](C(NC(=O)c2ccccc2)c2ccccn2)CC1 (stereo not given in full) was ClpP1P2: 10.31%; Pks13 thioesterase: -12.8%.

Result for N#Cc1cnc2ccccc2c1N1CCN(C(=O)C2CCC2)CC1 was ClpP1P2: -1.903%; Pks13 thioesterase: 5.388%. For CNc1cccc(CC2COCCN(C(=O)c3cccnc3)C2)n1 (stereo not given) the result was ClpP1P2: -15.89%; Pks13 thioesterase: -110.7%. Result for CN(C)c1ncccc1N(C)C(=O)Cn1cc(-c2ccccc2)nn1 was ClpP1P2: -0.004093%; Pks13 thioesterase: -17.82%. O=C(CCc1ccncc1)N1CCc2c(ncnc2N2CCOCC2)C1 gave ClpP1P2: 9.374%; Pks13 thioesterase: 2.362%. OCC(O)CSCc1nnc(-c2ccc(Cl)cc2)o1 (stereo not given) read ClpP1P2: -2.7%; Pks13 thioesterase: -32.29%.

Result for CC(=O)c1cc(C(=O)NC2(c3ccc(Br)cc3)CC2)n(C)c1 was ClpP1P2: 3.203%; Pks13 thioesterase: -31.2%. For Cn1cc(CN2CCCn3cnc(CN4CCCC4=O)c3C2)cn1 the result was ClpP1P2: 4.266%; Pks13 thioesterase: -9.618%. O=C1NCC2(CCCN(C(=O)c3ccc4c(c3)CCO4)C2)O1 (stereo not given) read ClpP1P2: -3.355%; Pks13 thioesterase: -30.51%. With CC(=O)N[C@@H]1CN(C(=O)c2cc(C)oc2C)C[C@H]1c1ccc(C)o1 the screen gave ClpP1P2: -5.28%; Pks13 thioesterase: -8.373%. COCCNC(=O)[C@H]1C[C@@H]2CCN(c3ncccn3)C[C@H]2O1 read ClpP1P2: -14.41%; Pks13 thioesterase: -5.107%.

For O=C(NC[C@H]1OC[C@@H]2CCN(Cc3ccco3)C[C@@H]21)c1ccnnc1 the result was ClpP1P2: 10.75%; Pks13 thioesterase: -11.03%. Result for O=C(Cn1cc(C(=O)O)ccc1=O)NCc1ccc(F)cc1Cl was ClpP1P2: -2.314%; Pks13 thioesterase: 9.034%. CCN(C)c1ncnc2c1CCN(Cc1csc(C)n1)CC2 gave ClpP1P2: 6.323%; Pks13 thioesterase: -19.86%. O=C1[C@@H]2CCN(C3CCC3)C[C@@H]2OCCN1Cc1ccncc1 gave ClpP1P2: 6.015%; Pks13 thioesterase: -16.33%. For CC(C)[C@@H]1CN(c2ccc(C(F)(F)F)cn2)C[C@H]1NS(C)(=O)=O the result was ClpP1P2: 5.581%; Pks13 thioesterase: 2.849%.

NC(=O)COc1cccc(C(=O)NCc2ccc(Cl)s2)c1 read ClpP1P2: 12.78%; Pks13 thioesterase: 34.81%. CN1CC[C@H]2CN(C(=O)c3ccc4sc5c(c4c3)CCNC5=O)C[C@H]21 gave ClpP1P2: -3.348%. With CCS(=O)(=O)N1CCC2(CC1)CC(CC(=O)NC1CC1)c1ccccc12 (stereo not given) the screen gave ClpP1P2: 9.623%; Pks13 thioesterase: 5.56%. CNc1nc(CNC(=O)Nc2cccc(-c3ncc(C)o3)c2)cs1 gave ClpP1P2: -10.07%; Pks13 thioesterase: -16.04%. For Cc1nc(NCc2ccccn2)c2c(n1)c(C)nn2C the result was ClpP1P2: -4.607%; Pks13 thioesterase: -0.5802%.

With Cc1cncc(C(=O)N(c2ccc(F)cn2)C2CCOCC2)c1 the screen gave ClpP1P2: -0.8171%; Pks13 thioesterase: -32.45%. For CC(c1nc(C2CC2)no1)N1CCN(CCS(C)(=O)=O)CC1 (stereo not given) the result was ClpP1P2: -0.1892%. O=C(c1ccc(N2CCCC2)nn1)N1CCCc2cc(F)c(F)cc21 gave ClpP1P2: -4.939%; Pks13 thioesterase: -2.013%. CCCNC(=O)c1cc(OC)c(OC)cc1N(C)S(C)(=O)=O gave ClpP1P2: -19.24%; Pks13 thioesterase: -1.069%. For Cn1cc(CN2CCC3(CCC(C(=O)NCC4CC4)C3)CC2)cn1 (stereo not given) the result was ClpP1P2: 5.069%; Pks13 thioesterase: -30.24%.

CN(c1ccc(C#N)cn1)C1CCCN(Cc2noc(C3CC3)n2)C1 (stereo not given) read ClpP1P2: 3.049%; Pks13 thioesterase: -6.002%. With O=C(Nc1cc(CSCCO)ccn1)c1ccc(Cl)o1 the screen gave ClpP1P2: -18.78%; Pks13 thioesterase: 62.02%. Cc1nn(C)c(C)c1-c1cc(-c2cc(CC(=O)O)cs2)nc(N)c1C#N read ClpP1P2: -419.9%; Pks13 thioesterase: 47.86%. Cc1cn2c(n1)C(CNCc1cccc3c1OCO3)CCC2 (stereo not given) read ClpP1P2: -4.281%; Pks13 thioesterase: 12.42%.

Data taken from ChEMBL document CHEMBL3988442, “University of Dundee, Small-Polar-MMV Screening Library” (2021).